Test results published in publication doi:10.1101/521369.
These are yes or no findings as the source states them, for the method shown. Binding seen in cells or lysates may run through a third protein. Where a sequence is shown, tags or fusion partners need not be part of it.

Biological target: T1, eGFP-PLCβ1 (UniProt P10687)
T1 sequence: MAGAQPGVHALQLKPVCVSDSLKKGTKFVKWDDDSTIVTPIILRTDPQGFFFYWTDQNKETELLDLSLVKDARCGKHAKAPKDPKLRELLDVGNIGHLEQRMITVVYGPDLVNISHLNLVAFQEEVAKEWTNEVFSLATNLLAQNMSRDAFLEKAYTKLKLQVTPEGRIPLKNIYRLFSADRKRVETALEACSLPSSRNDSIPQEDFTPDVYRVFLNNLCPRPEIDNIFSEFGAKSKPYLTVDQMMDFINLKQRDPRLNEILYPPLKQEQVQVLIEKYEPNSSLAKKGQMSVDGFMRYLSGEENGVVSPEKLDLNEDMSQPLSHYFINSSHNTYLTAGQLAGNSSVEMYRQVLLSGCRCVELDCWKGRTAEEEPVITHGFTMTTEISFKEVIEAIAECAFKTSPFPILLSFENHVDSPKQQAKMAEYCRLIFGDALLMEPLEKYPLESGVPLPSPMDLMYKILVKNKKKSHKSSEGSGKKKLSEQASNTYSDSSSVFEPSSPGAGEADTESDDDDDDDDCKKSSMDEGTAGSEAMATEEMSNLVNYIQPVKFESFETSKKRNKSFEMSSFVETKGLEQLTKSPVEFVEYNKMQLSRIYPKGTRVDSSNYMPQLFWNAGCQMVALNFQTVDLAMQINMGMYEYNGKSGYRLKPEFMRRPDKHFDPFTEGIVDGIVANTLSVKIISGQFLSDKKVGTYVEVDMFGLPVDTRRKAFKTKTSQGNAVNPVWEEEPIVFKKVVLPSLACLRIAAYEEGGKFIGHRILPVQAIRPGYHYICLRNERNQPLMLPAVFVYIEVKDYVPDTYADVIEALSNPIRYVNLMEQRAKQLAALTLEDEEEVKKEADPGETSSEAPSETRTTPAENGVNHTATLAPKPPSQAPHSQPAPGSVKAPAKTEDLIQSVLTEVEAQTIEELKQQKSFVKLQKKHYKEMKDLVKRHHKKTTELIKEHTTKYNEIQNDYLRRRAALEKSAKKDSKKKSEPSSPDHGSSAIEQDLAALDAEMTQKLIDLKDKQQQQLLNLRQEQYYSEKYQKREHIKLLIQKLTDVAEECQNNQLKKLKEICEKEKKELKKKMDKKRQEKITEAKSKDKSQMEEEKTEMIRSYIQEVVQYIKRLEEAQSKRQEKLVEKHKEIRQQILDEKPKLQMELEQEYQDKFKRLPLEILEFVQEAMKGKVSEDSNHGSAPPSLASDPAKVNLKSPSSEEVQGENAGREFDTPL
Assay: co-IP

binding: no binding
Substance: IQGAP2, endogenous (rat (endogenous in PC12))
